Some of the results follow.
Key:
Assay in all cases: log2 fold change, soluble protein after heating vs DMSO (PISA); higher = thermal stabilisation; K562 cells, 10 uM, 30 min; active = over 0.2 and 3.5 SD of the protein, either way, in both replicates (recomputed)
[1] = compound: CS(=O)(=O)c1ccc(-c2cnc(N)c(C(=O)Nc3ccccc3)n2)cc1
Summary of the method: (§1)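 Aliquots of K562 cells (2×10^6 cells/mL) treated with 10 μM compound for 30 min were heated for 3 min over 48°C-58°C. After pooling and extraction in PBS with 0.5% NP-40 at 4°C, soluble protein from a 21,000xg, 90 min spin was quantified by TMTpro 16plex LC-MS/MS with channel sums equalised. Thermal stability is expressed against control samples, from duplicates, as a log2 fold change.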

Chains of the proteins cited; added tags and fusions are not shown. Lines headed by an entry give the natural chain unless they say otherwise; changes in a name come on top.
UniProt Q9Y263: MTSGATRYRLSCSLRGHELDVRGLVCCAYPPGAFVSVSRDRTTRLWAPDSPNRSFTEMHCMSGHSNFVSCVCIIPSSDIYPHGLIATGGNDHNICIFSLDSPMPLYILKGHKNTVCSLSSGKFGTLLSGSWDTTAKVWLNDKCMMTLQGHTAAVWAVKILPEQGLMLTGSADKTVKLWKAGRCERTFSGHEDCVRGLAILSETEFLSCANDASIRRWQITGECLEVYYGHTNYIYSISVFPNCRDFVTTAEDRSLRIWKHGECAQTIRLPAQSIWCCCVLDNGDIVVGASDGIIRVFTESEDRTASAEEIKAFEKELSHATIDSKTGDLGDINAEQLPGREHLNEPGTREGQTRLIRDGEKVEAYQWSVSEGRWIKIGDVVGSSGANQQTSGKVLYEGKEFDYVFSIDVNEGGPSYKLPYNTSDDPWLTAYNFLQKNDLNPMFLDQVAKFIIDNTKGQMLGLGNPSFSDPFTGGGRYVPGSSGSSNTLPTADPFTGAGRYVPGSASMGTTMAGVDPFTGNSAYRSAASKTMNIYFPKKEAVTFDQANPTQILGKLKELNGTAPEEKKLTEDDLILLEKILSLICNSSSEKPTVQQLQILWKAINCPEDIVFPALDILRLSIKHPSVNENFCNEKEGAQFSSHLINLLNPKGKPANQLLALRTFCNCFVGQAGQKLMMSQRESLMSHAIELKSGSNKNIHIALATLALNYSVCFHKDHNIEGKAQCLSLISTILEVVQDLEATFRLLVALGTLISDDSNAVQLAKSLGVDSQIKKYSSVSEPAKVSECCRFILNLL
UniProt Q92643: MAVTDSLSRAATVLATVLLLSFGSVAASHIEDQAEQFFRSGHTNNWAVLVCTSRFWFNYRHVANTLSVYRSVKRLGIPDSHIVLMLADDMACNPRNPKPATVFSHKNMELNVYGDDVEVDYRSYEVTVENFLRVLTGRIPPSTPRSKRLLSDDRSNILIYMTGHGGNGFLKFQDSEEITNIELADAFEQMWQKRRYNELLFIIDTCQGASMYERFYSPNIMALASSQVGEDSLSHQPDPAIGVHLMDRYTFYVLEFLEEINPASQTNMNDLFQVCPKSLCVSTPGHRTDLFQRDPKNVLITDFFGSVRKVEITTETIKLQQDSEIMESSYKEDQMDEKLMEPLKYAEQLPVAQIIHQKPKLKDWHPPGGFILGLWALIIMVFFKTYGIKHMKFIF
UniProt P08237: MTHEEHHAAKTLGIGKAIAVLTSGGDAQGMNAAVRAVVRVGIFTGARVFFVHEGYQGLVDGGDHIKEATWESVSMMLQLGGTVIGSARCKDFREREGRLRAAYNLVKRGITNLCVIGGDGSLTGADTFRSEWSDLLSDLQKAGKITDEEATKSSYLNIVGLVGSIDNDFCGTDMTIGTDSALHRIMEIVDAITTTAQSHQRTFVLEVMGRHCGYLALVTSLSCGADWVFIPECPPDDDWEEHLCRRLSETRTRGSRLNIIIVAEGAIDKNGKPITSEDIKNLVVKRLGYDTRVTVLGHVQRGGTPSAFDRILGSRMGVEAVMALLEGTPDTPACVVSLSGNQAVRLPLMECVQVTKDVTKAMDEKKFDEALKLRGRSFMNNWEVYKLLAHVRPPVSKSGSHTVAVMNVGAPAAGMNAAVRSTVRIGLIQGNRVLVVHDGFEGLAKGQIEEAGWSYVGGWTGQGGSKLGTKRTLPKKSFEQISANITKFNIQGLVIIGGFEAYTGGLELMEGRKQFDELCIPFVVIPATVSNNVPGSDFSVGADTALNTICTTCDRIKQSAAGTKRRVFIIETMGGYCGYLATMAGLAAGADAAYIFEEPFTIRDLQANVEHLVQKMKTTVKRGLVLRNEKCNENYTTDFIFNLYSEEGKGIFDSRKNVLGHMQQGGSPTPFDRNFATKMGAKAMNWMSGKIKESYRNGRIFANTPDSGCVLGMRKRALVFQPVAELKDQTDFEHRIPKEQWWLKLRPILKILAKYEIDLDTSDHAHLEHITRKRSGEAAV
UniProt Q6P5Z2: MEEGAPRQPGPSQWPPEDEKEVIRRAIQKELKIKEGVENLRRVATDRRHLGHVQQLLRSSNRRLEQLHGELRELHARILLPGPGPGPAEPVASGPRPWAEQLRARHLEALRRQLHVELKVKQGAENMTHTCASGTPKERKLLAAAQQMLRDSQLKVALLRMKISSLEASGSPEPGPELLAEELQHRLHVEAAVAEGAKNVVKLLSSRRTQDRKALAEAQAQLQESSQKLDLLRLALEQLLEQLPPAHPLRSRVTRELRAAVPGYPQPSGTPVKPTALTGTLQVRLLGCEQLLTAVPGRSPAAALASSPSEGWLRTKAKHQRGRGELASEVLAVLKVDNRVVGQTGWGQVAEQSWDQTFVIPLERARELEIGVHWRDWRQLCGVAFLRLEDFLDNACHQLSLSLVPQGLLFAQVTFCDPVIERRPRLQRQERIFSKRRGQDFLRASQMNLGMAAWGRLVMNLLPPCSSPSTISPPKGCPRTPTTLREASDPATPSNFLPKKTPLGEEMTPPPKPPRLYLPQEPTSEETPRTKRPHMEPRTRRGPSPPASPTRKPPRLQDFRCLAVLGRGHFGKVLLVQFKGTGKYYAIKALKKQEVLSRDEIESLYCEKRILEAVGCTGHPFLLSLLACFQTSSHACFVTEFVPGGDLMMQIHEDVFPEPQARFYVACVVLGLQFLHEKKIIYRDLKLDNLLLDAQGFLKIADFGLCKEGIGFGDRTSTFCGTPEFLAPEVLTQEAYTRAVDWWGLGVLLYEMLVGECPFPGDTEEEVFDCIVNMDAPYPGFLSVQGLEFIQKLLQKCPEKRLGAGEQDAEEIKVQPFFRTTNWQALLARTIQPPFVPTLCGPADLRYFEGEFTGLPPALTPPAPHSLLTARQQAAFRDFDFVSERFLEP
UniProt Q96HS1, whole entry, looked up: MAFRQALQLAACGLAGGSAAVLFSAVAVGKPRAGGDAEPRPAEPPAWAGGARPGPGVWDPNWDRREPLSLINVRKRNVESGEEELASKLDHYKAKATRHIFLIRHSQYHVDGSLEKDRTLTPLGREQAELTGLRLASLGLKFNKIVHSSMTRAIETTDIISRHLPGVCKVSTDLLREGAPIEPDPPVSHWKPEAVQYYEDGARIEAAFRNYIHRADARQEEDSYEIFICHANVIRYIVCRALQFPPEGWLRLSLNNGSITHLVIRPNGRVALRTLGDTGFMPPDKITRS
UniProt P17858: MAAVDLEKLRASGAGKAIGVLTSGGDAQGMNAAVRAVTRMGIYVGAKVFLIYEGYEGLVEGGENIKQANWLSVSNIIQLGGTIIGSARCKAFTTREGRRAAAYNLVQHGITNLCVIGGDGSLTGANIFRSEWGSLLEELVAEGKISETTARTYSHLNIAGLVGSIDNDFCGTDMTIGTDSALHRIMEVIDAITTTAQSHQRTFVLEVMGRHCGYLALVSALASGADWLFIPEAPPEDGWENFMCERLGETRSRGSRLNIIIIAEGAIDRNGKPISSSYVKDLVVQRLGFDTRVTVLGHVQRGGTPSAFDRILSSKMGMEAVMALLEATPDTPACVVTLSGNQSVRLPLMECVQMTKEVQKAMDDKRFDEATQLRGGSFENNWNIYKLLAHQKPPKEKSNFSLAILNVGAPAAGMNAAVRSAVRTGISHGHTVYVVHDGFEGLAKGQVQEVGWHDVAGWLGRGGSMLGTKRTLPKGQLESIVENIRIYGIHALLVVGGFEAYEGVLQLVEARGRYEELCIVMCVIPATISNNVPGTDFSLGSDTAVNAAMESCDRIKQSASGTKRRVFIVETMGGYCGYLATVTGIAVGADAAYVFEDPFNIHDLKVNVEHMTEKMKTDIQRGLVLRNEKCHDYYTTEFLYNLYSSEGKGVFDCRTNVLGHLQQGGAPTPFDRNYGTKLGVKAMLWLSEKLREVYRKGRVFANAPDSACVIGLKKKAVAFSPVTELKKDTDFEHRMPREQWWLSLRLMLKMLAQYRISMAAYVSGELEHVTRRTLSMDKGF
UniProt O15173: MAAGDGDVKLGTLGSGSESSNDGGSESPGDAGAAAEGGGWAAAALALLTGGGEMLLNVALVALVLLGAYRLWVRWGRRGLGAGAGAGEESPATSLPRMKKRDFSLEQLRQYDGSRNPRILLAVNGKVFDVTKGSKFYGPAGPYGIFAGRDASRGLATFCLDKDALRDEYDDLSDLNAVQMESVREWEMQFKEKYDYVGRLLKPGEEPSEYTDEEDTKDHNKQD
UniProt A6NDG6: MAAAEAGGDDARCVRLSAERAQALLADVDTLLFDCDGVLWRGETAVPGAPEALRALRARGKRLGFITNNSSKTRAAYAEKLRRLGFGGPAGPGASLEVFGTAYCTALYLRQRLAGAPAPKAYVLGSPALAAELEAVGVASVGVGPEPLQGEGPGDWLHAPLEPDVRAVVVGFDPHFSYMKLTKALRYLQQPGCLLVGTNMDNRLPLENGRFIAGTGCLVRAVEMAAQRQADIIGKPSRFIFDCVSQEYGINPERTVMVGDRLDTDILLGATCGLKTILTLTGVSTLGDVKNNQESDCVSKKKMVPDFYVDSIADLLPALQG
UniProt P12273: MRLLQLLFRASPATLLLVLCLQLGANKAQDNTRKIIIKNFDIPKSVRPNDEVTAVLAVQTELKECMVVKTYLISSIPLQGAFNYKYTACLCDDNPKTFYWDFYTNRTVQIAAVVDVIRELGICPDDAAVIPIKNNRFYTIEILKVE
UniProt Q8IWS0: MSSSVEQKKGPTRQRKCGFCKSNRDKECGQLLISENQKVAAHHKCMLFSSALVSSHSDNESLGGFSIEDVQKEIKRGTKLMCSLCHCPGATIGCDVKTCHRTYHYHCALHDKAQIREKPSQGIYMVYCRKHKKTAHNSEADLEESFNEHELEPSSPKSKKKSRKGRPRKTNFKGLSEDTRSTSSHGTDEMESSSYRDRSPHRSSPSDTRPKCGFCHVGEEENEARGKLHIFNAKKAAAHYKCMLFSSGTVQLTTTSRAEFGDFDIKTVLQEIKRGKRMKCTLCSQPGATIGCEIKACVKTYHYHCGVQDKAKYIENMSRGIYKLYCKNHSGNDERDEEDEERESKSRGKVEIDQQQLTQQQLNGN
UniProt Q9UBF8: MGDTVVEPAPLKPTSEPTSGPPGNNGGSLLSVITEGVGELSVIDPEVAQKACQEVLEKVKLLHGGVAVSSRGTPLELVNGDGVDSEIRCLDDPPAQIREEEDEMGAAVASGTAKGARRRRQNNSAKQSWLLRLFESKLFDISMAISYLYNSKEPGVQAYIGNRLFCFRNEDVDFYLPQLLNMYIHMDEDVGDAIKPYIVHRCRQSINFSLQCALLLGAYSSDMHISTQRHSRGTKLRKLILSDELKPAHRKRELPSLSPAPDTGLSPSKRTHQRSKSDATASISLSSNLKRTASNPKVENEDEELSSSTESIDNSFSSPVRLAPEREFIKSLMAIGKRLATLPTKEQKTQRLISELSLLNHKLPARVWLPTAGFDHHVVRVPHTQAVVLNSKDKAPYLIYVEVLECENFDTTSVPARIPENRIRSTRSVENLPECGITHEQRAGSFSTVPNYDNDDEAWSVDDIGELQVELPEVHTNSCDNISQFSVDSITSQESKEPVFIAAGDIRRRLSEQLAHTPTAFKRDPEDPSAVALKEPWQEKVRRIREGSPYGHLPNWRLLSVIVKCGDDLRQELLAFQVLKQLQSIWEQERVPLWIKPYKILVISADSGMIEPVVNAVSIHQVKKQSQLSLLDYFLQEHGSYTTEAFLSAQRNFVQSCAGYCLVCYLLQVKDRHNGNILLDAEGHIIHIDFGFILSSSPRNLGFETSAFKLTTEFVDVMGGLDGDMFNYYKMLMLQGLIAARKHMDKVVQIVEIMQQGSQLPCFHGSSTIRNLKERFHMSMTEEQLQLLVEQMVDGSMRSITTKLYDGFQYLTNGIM
UniProt O15212, whole entry, looked up: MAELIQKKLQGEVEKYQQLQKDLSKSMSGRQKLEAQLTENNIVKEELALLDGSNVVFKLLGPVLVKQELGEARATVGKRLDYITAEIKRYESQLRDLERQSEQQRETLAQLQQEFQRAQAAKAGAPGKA
UniProt Q13526, whole entry, looked up: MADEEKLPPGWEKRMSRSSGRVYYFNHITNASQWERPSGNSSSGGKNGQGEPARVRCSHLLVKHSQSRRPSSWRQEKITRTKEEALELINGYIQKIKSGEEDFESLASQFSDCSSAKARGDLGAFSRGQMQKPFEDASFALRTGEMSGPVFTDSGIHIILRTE
UniProt P18669: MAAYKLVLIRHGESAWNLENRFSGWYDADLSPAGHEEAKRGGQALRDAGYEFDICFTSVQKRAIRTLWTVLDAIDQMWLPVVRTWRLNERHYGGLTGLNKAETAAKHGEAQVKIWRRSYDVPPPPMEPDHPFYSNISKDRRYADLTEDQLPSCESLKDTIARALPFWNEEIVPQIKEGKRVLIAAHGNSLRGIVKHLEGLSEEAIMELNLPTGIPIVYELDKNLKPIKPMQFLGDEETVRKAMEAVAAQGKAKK

crizotinib = compound: C[C@@H](Oc1cc(-c2cnn(C3CCNCC3)c2)cnc1N)c1c(Cl)ccc(F)c1Cl [crizotinib]
Summary of the method: as §1

[2] = compound: C[C@@H]1COCCN1C2=NC(=NC(=C2)C3(CC3)S(=O)(=O)C)C4=C5C=CNC5=CC=C4
Summary of the method: as §1

[3] = compound: C[C@H](C1=CC=C(C=C1)C(=O)NC2=C3C=CNC3=NC=C2)N
Summary of the method: as §1

duvelisib = compound: C[C@H](Nc1ncnc2nc[nH]c12)c1cc2cccc(Cl)c2c(=O)n1-c1ccccc1 [duvelisib]
Summary of the method: as §1

gandotinib = compound: Cc1cc(Nc2cc(CN3CCOCC3)c3nc(C)c(Cc4ccc(Cl)cc4F)n3n2)n[nH]1 [gandotinib]
Summary of the method: as §1

tozasertib = compound: Cc1cc(Nc2cc(N3CCN(C)CC3)nc(Sc3ccc(NC(=O)C4CC4)cc3)n2)n[nH]1 [tozasertib]
Summary of the method: as §1

[4] = compound: Cc1cc(SCc2sc(-c3ccc(C(F)(F)F)cc3)nc2C)ccc1OCC(=O)O
Summary of the method: as §1

doramapimod = compound: Cc1ccc(-n2nc(C(C)(C)C)cc2NC(=O)Nc2ccc(OCCN3CCOCC3)c3ccccc23)cc1 [doramapimod]
Summary of the method: as §1

ispinesib = compound: Cc1ccc(C(=O)N(CCCN)[C@@H](c2nc3cc(Cl)ccc3c(=O)n2Cc2ccccc2)C(C)C)cc1 [ispinesib]
Summary of the method: as §1

bafetinib = compound: Cc1ccc(NC(=O)c2ccc(CN3CC[C@H](N(C)C)C3)c(C(F)(F)F)c2)cc1Nc1nccc(-c2cncnc2)n1 [bafetinib]
Summary of the method: as §1

[5] = compound: Cc1cccc(CC(=O)N2CCc3c2ccc(-c2cn(C)c4ncnc(N)c24)c3F)n1
Summary of the method: as §1

nilotinib = compound: Cc1cn(-c2cc(NC(=O)c3ccc(C)c(Nc4nccc(-c5cccnc5)n4)c3)cc(C(F)(F)F)c2)cn1 [nilotinib]
Summary of the method: as §1

[6] = compound: Cc1nc(Nc2n[nH]c3c2CN(C(=O)N[C@H](CN(C)C)c2ccccc2)C3(C)C)c2sccc2n1
Summary of the method: as §1

dasatinib = compound: Cc1nc(Nc2ncc(C(=O)Nc3c(C)cccc3Cl)s2)cc(N2CCN(CCO)CC2)n1 [dasatinib]
Summary of the method: as §1

[7] = compound: Cc1ncc(-c2ccnc(Nc3ccc(S(C)(=O)=O)cc3)n2)n1C(C)C
Summary of the method: as §1

[8] = compound: Cn1cc(-c2ccc3c(c2)CCN3C(=O)Cc2cccc(C(F)(F)F)c2)c2c(N)ncnc21
Summary of the method: as §1

[9] = compound: Cn1cc(-c2ccc3nnc(C(F)(F)c4ccc5ncccc5c4)n3n2)cn1
Summary of the method: as §1

tipifarnib = compound: Cn1cncc1[C@@](N)(c1ccc(Cl)cc1)c1ccc2c(c1)c(-c1cccc(Cl)c1)cc(=O)n2C [tipifarnib]
Summary of the method: as §1

mubritinib = compound: FC(F)(F)c1ccc(/C=C/c2nc(COc3ccc(CCCCn4ccnn4)cc3)co2)cc1 [mubritinib]
Summary of the method: as §1

Measured: log2 fold change

PLAA (UniProt Q9Y263)
inactive: [1] 0.03 | crizotinib -0.074 | [2] 0.01 | [3] -0.03 | duvelisib 0.058 | gandotinib -0.113 | tozasertib -0.003 | [4] 0.101 | doramapimod -0.013 | ispinesib -0.015 | bafetinib 0.034 | [5] 0.01 | nilotinib -0.012 | [6] -0.015 | dasatinib -0.078 | [7] -0.01 | [8] 0.014 | [9] -0.017 | tipifarnib -0.056 | mubritinib 0.107

PICALM (UniProt H0YEY8)
inactive: [1] 0.05 | crizotinib -0.018 | [2] 0.021 | [3] -0.108 | duvelisib -0.098 | gandotinib -0.07 | tozasertib -0.041 | [4] 0.08 | doramapimod -0.043 | ispinesib -0.074 | bafetinib -0.035 | [5] -0.114 | nilotinib -0.044 | [6] 0.019 | dasatinib -0.111 | [7] -0.027 | [8] 0.058 | [9] -0.109 | tipifarnib -0.239 | mubritinib 0.011

PIGK (UniProt Q92643)
inactive: [1] 0.071 | crizotinib 0.039 | [2] 0.003 | [3] 0.151 | duvelisib -0.028 | gandotinib 0.014 | tozasertib 0.048 | [4] 0.003 | doramapimod 0.006 | ispinesib 0.017 | bafetinib 0.004 | [5] -0.133 | nilotinib -0.039 | [6] 0.04 | dasatinib -0.005 | [7] -0.006 | [8] -0.063 | [9] -0.004 | tipifarnib 0.037 | mubritinib -0.073

PFKM isoform 3 (UniProt P08237)
inactive: [1] 0 | crizotinib 0.051 | [2] 0.041 | [3] -0.04 | duvelisib 0.017 | gandotinib 0.01 | tozasertib -0.022 | [4] -0.021 | doramapimod 0.013 | ispinesib 0.038 | bafetinib -0.04 | [5] -0.039 | nilotinib 0.006 | [6] 0.006 | dasatinib 0.007 | [7] -0.01 | [8] 0.013 | [9] -0.005 | tipifarnib -0.004 | mubritinib 0.061

PKN3 (UniProt Q6P5Z2)
inactive: [1] 0.38

PGAM5 (UniProt Q96HS1)
inactive: [1] -0.032 | crizotinib -0.016 | [2] -0.153 | [3] 0.17 | duvelisib -0.022 | gandotinib 0.098 | tozasertib -0.011 | [4] 0 | doramapimod 0.144 | ispinesib -0.116 | bafetinib 0.016 | [5] -0.034 | nilotinib -0.038 | [6] 0.114 | dasatinib 0.068 | [7] 0.043 | [8] -0.055 | [9] -0.126 | tipifarnib 0.03 | mubritinib -0.048

PFKL isoform 2 (UniProt P17858)
inactive: [1] 0.018 | crizotinib 0.066 | [2] 0.06 | [3] -0.063 | duvelisib 0.018 | gandotinib -0.001 | tozasertib -0.019 | [4] -0.018 | doramapimod -0.02 | ispinesib 0.049 | bafetinib -0.039 | [5] -0.015 | nilotinib 0.006 | [6] 0.014 | dasatinib -0.006 | [7] 0.016 | [8] 0.027 | [9] 0.011 | tipifarnib 0 | mubritinib 0.053

PGRMC2 isoform 2 (UniProt O15173)
inactive: [1] 0.005 | crizotinib 0.092 | [2] -0.006 | [3] -0.09 | duvelisib 0.008 | gandotinib 0.073 | tozasertib -0.003 | [4] 0.018 | doramapimod -0.028 | ispinesib 0.098 | bafetinib -0.069 | [5] 0 | nilotinib 0.002 | [6] 0.023 | dasatinib -0.007 | [7] -0.012 | [8] 0.062 | [9] 0.013 | tipifarnib 0.009 | mubritinib -0.023

PLEC (UniProt Q15149)
inactive: [1] 0.001 | crizotinib -0.03 | [2] -0.147 | [3] 0.256 | duvelisib -0.051 | gandotinib 0.123 | tozasertib 0.077 | [4] 0.075 | doramapimod 0.09 | ispinesib -0.124 | bafetinib 0.108 | [5] -0.005 | nilotinib 0.036 | [6] 0.106 | dasatinib -0.004 | [7] -0.058 | [8] -0.089 | [9] 0.026 | tipifarnib 0.026 | mubritinib -0.05

PGP (UniProt A6NDG6)
inactive: [1] 0.004 | crizotinib 0.045 | [2] 0.045 | [3] -0.086 | duvelisib 0.038 | gandotinib -0.003 | tozasertib -0.019 | [4] -0.03 | doramapimod -0.04 | ispinesib 0.039 | bafetinib 0.017 | [5] -0.017 | nilotinib 0.023 | [6] 0.004 | dasatinib 0.005 | [7] -0.006 | [8] 0.037 | [9] 0.01 | tipifarnib -0.06 | mubritinib 0.022

PIP (UniProt P12273)
inactive: [1] -0.135 | crizotinib 0.183 | [2] -0.103 | [3] -0.249 | duvelisib -0.167 | gandotinib -0.181 | tozasertib 0.19 | [4] -0.442 | doramapimod -0.163 | ispinesib 0.52 | bafetinib 0.704 | [5] -0.117 | nilotinib -0.121 | [6] 0.102 | dasatinib -0.075 | [7] 0.5 | [8] 0.516 | [9] 0.234 | tipifarnib -0.319 | mubritinib -0.569

PHF6 (UniProt Q8IWS0)
inactive: [1] -0.103 | crizotinib 0.087 | [2] -0.437 | [3] 0.308 | duvelisib -0.096 | gandotinib 0.313 | tozasertib 0.049 | [4] 0.052 | doramapimod 0.141 | ispinesib -0.113 | bafetinib 0.219 | [5] -0.002 | nilotinib 0.016 | [6] -0.028 | dasatinib 0.154 | [7] -0.048 | [8] -0.223 | [9] -0.181 | tipifarnib 0.103 | mubritinib -0.139

PHACTR4 isoform 2 (UniProt Q8IZ21)
inactive: [1] 0.048 | crizotinib 0.117 | [2] 0.017 | [3] 0.003 | duvelisib 0.007 | gandotinib 0.093 | tozasertib 0 | [4] -0.029 | doramapimod -0.103 | ispinesib 0.097 | bafetinib -0.006 | [5] -0.173 | nilotinib 0.054 | [6] 0.023 | dasatinib -0.017 | [7] 0.032 | [8] 0.029 | [9] -0.005 | tipifarnib 0.01 | mubritinib 0.06

PI4KB (UniProt Q9UBF8)
inactive: [1] -0.159 | crizotinib -0.197 | [2] 0.047 | [3] 0.036 | duvelisib -0.029 | gandotinib -0.065 | tozasertib -0.107 | [4] 0.038 | doramapimod 0.027 | ispinesib -0.147 | bafetinib 0.002 | [5] 0.015 | nilotinib -0.108 | [6] -0.08 | dasatinib -0.158 | [7] 0.042 | [8] 0.063 | [9] 0.058 | tipifarnib -0.008 | mubritinib 0.059

PFDN6 (UniProt O15212)
inactive: [1] -0.021 | crizotinib 0.077 | [2] 0.08 | [3] -0.021 | duvelisib 0.083 | gandotinib -0.025 | tozasertib 0.009 | [4] -0.02 | doramapimod -0.029 | ispinesib -0.027 | bafetinib -0.01 | [5] 0.016 | nilotinib -0.004 | [6] 0.004 | dasatinib 0.046 | [7] 0.017 | [8] 0.007 | [9] 0.039 | tipifarnib -0.002 | mubritinib 0.019

Random excerpt: 2 records from the list.
PLAA (UniProt Q9Y263)
inactive: [1] 0.03 | crizotinib -0.074 | [2] 0.01 | [3] -0.03 | duvelisib 0.058 | gandotinib -0.113 | tozasertib -0.003 | [4] 0.101 | doramapimod -0.013 | ispinesib -0.015 | bafetinib 0.034 | [5] 0.01 | nilotinib -0.012 | [6] -0.015 | dasatinib -0.078 | [7] -0.01 | [8] 0.014 | [9] -0.017 | tipifarnib -0.056 | mubritinib 0.107

PFKL isoform 2 (UniProt P17858)
inactive: [1] 0.018 | crizotinib 0.066 | [2] 0.06 | [3] -0.063 | duvelisib 0.018 | gandotinib -0.001 | tozasertib -0.019 | [4] -0.018 | doramapimod -0.02 | ispinesib 0.049 | bafetinib -0.039 | [5] -0.015 | nilotinib 0.006 | [6] 0.014 | dasatinib -0.006 | [7] 0.016 | [8] 0.027 | [9] 0.011 | tipifarnib 0 | mubritinib 0.053

The results go on.

PIN1 (UniProt Q13526)
inactive: [1] 0.027 | crizotinib 0.073 | [2] 0.012 | [3] -0.102 | duvelisib 0.048 | gandotinib 0.046 | tozasertib -0.023 | [4] -0.031 | doramapimod -0.051 | ispinesib 0.073 | bafetinib -0.046 | [5] 0.033 | nilotinib 0.017 | [6] -0.072 | dasatinib -0.023 | [7] -0.003 | [8] 0.018 | [9] -0.009 | tipifarnib -0.055 | mubritinib 0.05

PGAM1 (UniProt P18669)
inactive: [1] -0.028 | crizotinib -0.039 | [2] -0.012 | [3] -0.065 | duvelisib 0.006 | gandotinib -0.022 | tozasertib 0.004 | [4] 0.011 | doramapimod -0.005 | ispinesib -0.02 | bafetinib -0.005 | [5] -0.015 | nilotinib 0.056 | [6] -0.001 | dasatinib 0.009 | [7] -0.001 | [8] 0 | [9] -0.06 | tipifarnib -0.016 | mubritinib 0.002

Reference: the supplement of paper PMC10849652
